# Paper PMC12488962
# Protein sequences, listed by entry. Tags and fused reporters are not part of them.
# UniProt P15307: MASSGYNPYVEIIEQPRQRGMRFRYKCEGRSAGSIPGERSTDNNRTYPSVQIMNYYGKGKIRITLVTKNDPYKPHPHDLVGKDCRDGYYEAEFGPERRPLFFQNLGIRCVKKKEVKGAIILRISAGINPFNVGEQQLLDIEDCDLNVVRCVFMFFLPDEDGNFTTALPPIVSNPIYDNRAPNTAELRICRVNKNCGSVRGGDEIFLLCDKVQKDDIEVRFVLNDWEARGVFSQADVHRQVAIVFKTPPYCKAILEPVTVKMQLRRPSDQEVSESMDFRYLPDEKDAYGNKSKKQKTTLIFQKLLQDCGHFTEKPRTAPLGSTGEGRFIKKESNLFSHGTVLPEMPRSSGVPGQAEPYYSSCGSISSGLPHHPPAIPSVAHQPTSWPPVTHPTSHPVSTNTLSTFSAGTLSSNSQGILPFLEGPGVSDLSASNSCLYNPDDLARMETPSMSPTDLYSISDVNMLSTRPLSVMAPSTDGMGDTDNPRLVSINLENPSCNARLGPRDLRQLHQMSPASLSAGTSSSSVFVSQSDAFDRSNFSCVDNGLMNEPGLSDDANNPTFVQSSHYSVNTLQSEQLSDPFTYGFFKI
# Results are given in words; binding and its absence hold for the method and conditions named. Binding seen in cells or lysates may run through a third protein. Some entries that bind do so weakly or less than the wild type. For some assays here: Where a sequence is shown, tags or fusion partners need not be part of it.
# T1: sialin, endogenous in macrophages (mouse (endogenous in Raw264.7)) (UniProt Q8BN82)
# T1 sequence: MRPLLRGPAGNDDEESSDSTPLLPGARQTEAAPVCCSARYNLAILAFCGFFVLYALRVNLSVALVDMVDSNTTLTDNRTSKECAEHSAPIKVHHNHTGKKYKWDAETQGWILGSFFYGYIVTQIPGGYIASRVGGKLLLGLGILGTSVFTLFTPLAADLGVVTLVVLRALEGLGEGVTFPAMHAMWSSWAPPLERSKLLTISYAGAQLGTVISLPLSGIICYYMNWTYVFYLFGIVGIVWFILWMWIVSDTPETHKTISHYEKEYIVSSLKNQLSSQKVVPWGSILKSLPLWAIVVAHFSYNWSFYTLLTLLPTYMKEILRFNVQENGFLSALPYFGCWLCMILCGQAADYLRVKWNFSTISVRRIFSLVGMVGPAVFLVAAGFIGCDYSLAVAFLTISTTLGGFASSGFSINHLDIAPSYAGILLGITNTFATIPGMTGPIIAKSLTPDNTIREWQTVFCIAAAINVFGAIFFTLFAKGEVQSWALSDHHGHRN
# B1: His-Slc17a5 (sialin), stably overexpressed in Raw264.7 macrophages (protein, UniProt Q8BN82 1-495)
# chain: T1 sequence
# Legend:
# [1] = biological target: T1, sialin, endogenous in macrophages (mouse (endogenous in Raw264.7)); assay: proximity ligation; Raw264.7 cells, Duolink In Situ Detection Reagents Red, Anti-Mouse MINUS and Anti-Rabbit PLUS probes, confocal imaging
# [2] = biological target: Rel (c-Rel, proto-oncogene Rel) (mouse (endogenous in Raw264.7)) (UniProt P15307); assay: co-IP; cell lysate in modified RIPA buffer, precleared with protein G beads, anti-Rel mouse monoclonal antibody (sc-6955X) overnight, protein G beads, three washes with RIPA buffer, SDS-PAGE and blot
molecule,measurement,setting,value
"Rel (c-Rel, proto-oncogene Rel) (from UniProt P15307 1-587)",binding,[1],binds
B1,binding,[2],binds
